Source: PubChem BioAssay AID1259254 (NCATS, 2017)

Screen: 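Genome-wide screen for genes that prevent DNA re-replication in cancer cells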 (primary screen)
System: human HCT116 colorectal cancer cells
Knock-down reagent: single siRNA against human genes
Timing: 3 days
Measured: 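Imaged Hoechst DNA stain sorts each cell into a cycle phase by DNA amount; per plate, G2 fraction set to 0% for non-targeting and 100% for GMNN siRNA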
Scale: G2 robust z-score: higher = more G2 cells, more excess DNA replication
Rule for the call: 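Active siRNAs have a G2 robust z of 5 or more median absolute deviations over the median, which in these data means about 38% or higher of GMNN control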
The whole screen tested about 59,000 reagents; below is a random part of them. In the full data, about 1,550 (2.6%) were called active. 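G2 share is only a proxy for re-replication; each gene was hit by three separate siRNAs, and active genes were retested.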 The numbers tell different reagents against one gene apart. Not all columns of the deposit are shown. The record does not give: the amount of reagent.

The first 2 entries as a preview:
L3MBTL1 (L3MBTL histone methyl-lysine binding protein 1) #1 — G2 robust z-score = 0.508; Outcome = inactive
L3MBTL1 (L3MBTL histone methyl-lysine binding protein 1) #2 — G2 robust z-score = -0.964; Outcome = inactive

The listing, repeating the preview:
L3MBTL1 (L3MBTL histone methyl-lysine binding protein 1) #1 — G2 robust z-score = 0.508; Outcome = inactive
L3MBTL1 (L3MBTL histone methyl-lysine binding protein 1) #2 — G2 robust z-score = -0.964; Outcome = inactive
L3MBTL1 (L3MBTL histone methyl-lysine binding protein 1) #3 — G2 robust z-score = -0.465; Outcome = inactive
AXIN2 (axin 2) #1 — G2 robust z-score = -0.273; Outcome = inactive
AXIN2 (axin 2) #2 — G2 robust z-score = -0.171; Outcome = inactive
AXIN2 (axin 2) #3 — G2 robust z-score = -0.851; Outcome = inactive
OR7C2 (olfactory receptor family 7 subfamily C member 2) #1 — G2 robust z-score = 0.732; Outcome = inactive
OR7C2 (olfactory receptor family 7 subfamily C member 2) #2 — G2 robust z-score = -0.348; Outcome = inactive
OR7C2 (olfactory receptor family 7 subfamily C member 2) #3 — G2 robust z-score = 0.328; Outcome = inactive
PRKX (protein kinase cAMP-dependent X-linked catalytic subunit) #1 — G2 robust z-score = -0.397; Outcome = inactive
PRKX (protein kinase cAMP-dependent X-linked catalytic subunit) #2 — G2 robust z-score = -0.165; Outcome = inactive
PRKX (protein kinase cAMP-dependent X-linked catalytic subunit) #3 — G2 robust z-score = -0.804; Outcome = inactive
PACC1 (proton activated chloride channel 1) #1 — G2 robust z-score = -1.33; Outcome = inactive
PACC1 (proton activated chloride channel 1) #2 — G2 robust z-score = -0.346; Outcome = inactive
PACC1 (proton activated chloride channel 1) #3 — G2 robust z-score = -0.135; Outcome = inactive
SRPK3 (SRSF protein kinase 3) #1 — G2 robust z-score = 0.00432; Outcome = inactive
SRPK3 (SRSF protein kinase 3) #2 — G2 robust z-score = 0.0912; Outcome = inactive
SRPK3 (SRSF protein kinase 3) #3 — G2 robust z-score = -0.736; Outcome = inactive
SOAT1 (sterol O-acyltransferase 1) #1 — G2 robust z-score = -0.783; Outcome = inactive
SOAT1 (sterol O-acyltransferase 1) #2 — G2 robust z-score = 0.0421; Outcome = inactive
SOAT1 (sterol O-acyltransferase 1) #3 — G2 robust z-score = -0.224; Outcome = inactive
FAM47DP (family with sequence similarity 47 member D, pseudogene) #1 — G2 robust z-score = -0.529; Outcome = inactive
FAM47DP (family with sequence similarity 47 member D, pseudogene) #2 — G2 robust z-score = 1.15; Outcome = inactive
FAM47DP (family with sequence similarity 47 member D, pseudogene) #3 — G2 robust z-score = -0.599; Outcome = inactive
